Measured values reported in patent US20250213569A1, “METHODS AND COMPOSITIONS FOR MEASURING AND INHIBITING EXONUCLEASE ACTIVITY” (priority 2020, published 2025).
Some compounds share one wording; it may come from a single statement.

Experiment: Autofluorescence of compounds
Details: not given

Row | SMILES | autofluorescence
1 | CC(C)=CCOc1ccc(/C=C/C(=O)c2ccc(OCC=C(C)C)cc2OCC(=O)O)cc1 [Compound 68, Sofalcone, reference compound] | none of these compounds have autofluorescence
2 | CC(C)=CCc1c(O)ccc(C(=O)/C=C/c2ccc(O)cc2)c1O [Compound 77, Isobavachalcone] | none of these compounds have autofluorescence
3 | O=C(NCc1ccc(F)cc1)C1C(=O)N(O)C(=O)c2cc(C(F)(F)F)ccc21 (centres unmarked) [Compound 112, 7-trifluoromethyl-N-(4-fluorobenzyl)-2-hydroxy-1,3-dioxo-4H-isoquinoline-4-carboxamide] | none of these compounds have autofluorescence
4 | CC(C)=CCc1c2c(c3occ(-c4ccc(O)c(O)c4)c(=O)c3c1O)C=CC(C)(C)O2 [Compound 69, Pomiferin] | none of these compounds have autofluorescence

Same assay, conditions: 250 μM final concentration

Row | SMILES | autofluorescence
5 | Oc1ccc(CC2NCCc3cc(O)c(O)cc32)cc1O (centres unmarked) [Compound 54, Tetrahydropapaveroline] | none of these compounds have autofluorescence
6 | Cc1c(S(=O)(=O)[O-])oc2c1C(=O)C(=O)c1c-2ccc2c1CCCC2(C)C.[Na+] [Compound 60, Tanshinone IIA sulfonate] | none of these compounds have autofluorescence
7 | O=C(c1ccccc1)c1ccc2ccc(/C=C/c3ccc(O)c(O)c3)nc2c1O [Compound 96, 7-benzoyl-2-(3,4-dihydroxyvinyl)-8-hydroxyquinoline] | none of these compounds have autofluorescence
8 | Cc1ccc2ccc(C(=O)O)c(O)c2n1 [Compound 78, 2-methyl-8-hydroxyquinoline-7-carboxylic acid] | none of these compounds have autofluorescence
